Reference: publication PMC2853571
Results are given in words; binding and its absence hold for the method and conditions named. Binding seen in cells or lysates may run through a third protein. A yes stands for co-enrichment or nearness to the bait. Other partners may have been found. Values belong to the molecule of their own block, whether it stands above or below them.

Protein sequences, listed by entry. Tags and fused reporters are not part of them.
UniProt O75923: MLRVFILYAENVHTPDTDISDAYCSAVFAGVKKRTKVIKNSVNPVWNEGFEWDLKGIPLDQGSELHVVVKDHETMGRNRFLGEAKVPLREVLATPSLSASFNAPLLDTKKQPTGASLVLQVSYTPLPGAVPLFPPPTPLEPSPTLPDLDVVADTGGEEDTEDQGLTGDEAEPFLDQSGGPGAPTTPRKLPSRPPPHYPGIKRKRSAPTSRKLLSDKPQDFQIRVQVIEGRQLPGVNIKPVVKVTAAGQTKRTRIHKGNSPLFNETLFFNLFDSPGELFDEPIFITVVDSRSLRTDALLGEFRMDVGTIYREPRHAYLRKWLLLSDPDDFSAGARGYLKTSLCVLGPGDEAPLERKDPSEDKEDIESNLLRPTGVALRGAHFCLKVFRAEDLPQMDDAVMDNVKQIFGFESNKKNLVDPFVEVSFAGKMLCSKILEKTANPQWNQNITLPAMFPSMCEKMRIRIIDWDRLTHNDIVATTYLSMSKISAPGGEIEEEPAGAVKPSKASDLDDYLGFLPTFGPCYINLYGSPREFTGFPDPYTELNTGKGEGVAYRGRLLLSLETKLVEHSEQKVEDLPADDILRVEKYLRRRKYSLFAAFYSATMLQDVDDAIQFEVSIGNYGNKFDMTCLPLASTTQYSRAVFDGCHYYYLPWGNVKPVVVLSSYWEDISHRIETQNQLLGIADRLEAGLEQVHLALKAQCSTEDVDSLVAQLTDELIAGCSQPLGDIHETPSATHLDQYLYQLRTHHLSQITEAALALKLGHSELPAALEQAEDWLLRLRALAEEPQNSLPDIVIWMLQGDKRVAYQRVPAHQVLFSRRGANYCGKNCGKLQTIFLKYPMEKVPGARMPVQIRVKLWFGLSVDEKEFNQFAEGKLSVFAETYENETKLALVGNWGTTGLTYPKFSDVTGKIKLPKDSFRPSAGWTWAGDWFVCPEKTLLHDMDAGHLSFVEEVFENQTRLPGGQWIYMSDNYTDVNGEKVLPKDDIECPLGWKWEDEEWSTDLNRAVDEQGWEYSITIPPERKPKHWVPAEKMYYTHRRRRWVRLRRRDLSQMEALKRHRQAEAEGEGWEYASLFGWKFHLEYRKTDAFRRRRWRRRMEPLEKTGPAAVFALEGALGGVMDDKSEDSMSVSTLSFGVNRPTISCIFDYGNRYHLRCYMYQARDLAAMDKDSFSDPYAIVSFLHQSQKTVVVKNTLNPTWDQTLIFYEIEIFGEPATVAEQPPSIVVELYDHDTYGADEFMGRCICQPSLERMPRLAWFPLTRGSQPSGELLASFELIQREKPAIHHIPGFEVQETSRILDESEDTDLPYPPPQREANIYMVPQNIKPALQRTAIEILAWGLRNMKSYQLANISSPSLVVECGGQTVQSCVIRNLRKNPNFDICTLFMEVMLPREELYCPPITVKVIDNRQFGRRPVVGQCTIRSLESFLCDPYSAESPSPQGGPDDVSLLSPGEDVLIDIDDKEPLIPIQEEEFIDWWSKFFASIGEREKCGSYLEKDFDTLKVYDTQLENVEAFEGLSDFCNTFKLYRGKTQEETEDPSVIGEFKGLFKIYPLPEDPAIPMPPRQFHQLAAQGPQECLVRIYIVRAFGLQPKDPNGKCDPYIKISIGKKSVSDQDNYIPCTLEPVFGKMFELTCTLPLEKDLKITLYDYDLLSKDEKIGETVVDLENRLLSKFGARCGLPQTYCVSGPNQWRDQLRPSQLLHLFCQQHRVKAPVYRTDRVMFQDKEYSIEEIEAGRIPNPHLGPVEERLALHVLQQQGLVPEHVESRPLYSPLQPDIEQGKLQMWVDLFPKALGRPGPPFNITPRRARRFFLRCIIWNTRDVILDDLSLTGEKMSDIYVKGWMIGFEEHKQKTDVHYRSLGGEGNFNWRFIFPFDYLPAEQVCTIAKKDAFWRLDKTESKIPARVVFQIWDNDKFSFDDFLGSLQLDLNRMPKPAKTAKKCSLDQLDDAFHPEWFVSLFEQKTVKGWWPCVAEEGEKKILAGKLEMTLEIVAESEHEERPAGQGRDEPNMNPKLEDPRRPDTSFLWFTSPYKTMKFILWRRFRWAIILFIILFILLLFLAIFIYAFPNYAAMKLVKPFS
UniProt P07356: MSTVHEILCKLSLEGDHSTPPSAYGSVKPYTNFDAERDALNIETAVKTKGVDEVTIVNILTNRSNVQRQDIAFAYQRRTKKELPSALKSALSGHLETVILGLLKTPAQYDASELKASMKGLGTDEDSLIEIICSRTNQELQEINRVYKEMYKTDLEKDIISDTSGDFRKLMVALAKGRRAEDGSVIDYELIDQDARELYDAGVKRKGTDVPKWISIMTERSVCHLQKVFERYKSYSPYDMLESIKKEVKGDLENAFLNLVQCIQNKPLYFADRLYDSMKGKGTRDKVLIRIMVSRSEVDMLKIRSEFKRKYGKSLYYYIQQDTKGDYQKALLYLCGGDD

Target: His-myc-dysferlin (UniProt O75923)
Assay: affinity purification with mass spectrometry; His-myc-dysferlin from HEK293T lysate held on protein A-Sepharose beads coated with anti-myc monoclonal antibody, washed, incubated with mouse skeletal muscle homogenate; SDS-PAGE, in-gel trypsin digestion, LC-MS/MS; control: non-transfected HEK293T extract; repeated twice; only the target purified

binding: binds
Molecule: AHNAK (from UniProt E9Q616 1-5656)

binding: binds
Molecule: annexin A2 (from UniProt P07356 1-339)

binding: binds
B1: calpain-3 (protein, UniProt Q64691 1-821)
chain: MPTVISPTVAPRTGAEPRSPGPVPHPAQGKTTEAGGGHPSGIYSAIISRNFPIIGVKEKTFEQLRRKCLEKKVLYLDPEFPPDETSLFYSQKFPIQFVWKRPPEICENPRFIIGGANRTDICQGDLGDCWFLAAIACLTLNERLLFRVIPHDQSFTENYAGIFHFQFWRYGDWVDVVIDDCLPTYNNQLVFTKSNHRNEFWSALLEKAYAKLHGSYEALKGGNTTEAMEDFTGGVTEFFEIKDAPSDMYKIMRKAIERGSLMGCSIDDGTNMTYGTSPSGLNMGELIARMVRNMDNSLLRDSDLDPRGSDDRPSRTIVPVQYETRMACGLVKGHAYSVTGLEEALFKGEKVKLVRLRNPWGQVEWNGSWSDGWKDWSFVDKDEKARLQHQVTEDGEFWMSYDDFVYHFTKLEICNLTADALESDKLQTWTVSVNEGRWVRGCSAGGCRNFPDTFWTNPQYRLKLLEEDDDPEDSEVICSFLVALMQKNRRKDRKLGANLFTIGFAIYEVPKEMHGNKQHLQKDFFLYNASKARSKTYINMREVSQRFRLPPSEYVIVPSTYEPHQEGEFILRVFSEKRNLSEEAENTISVDRPVKKKKNKPIIFVSDRANSNKELGVDQEAEEGKDKAGPEKRGETPQPRPGHTDQESEEQQQFRNIFRQIAGDDMEICADELKNVLNTVVNKHKDLKTQGFTLESCRSMIALMDTDGSGRLNLQEFHHLWKKIKAWQKIFKHYDTDHSGTINSYEMRNAVNDAGFHLNSQLYDIITMRYADKHMNIDFDSFICCFVRLEGMFRAFNAFDKDGDGIIKLNVLEWLQLTMYA

binding: binds
B2: affixin (protein, UniProt Q9ES46 1-365)
chain: MSSAPPRSPTPRAPKMKKDESFLGKLGGTLARKKKTREVTDLQEEGKSAINSPMAPALVDIHPEDTQLEENEERTMIDPTSREDPKFKELVKVLLDWINDVLAEERIIVKQLEEDLYDGQVLQKLLEKLAHCKLNVAEVTQSEIGQKQKLQTVLEAVQDLLRPHGWPLRWNVDSIHGKNLVAILHLLVSLAMHFRAPIHLPEHVTVQVVVVRKREGLLHSSHISEELTTTTEIMMGRFERDAFDTLFDHAPDKLNLVKKSLITFVNKHLNKLNLEVTDLETQFADGVYLVLLLGLLEDYFVPLHNFYLTPDSFDQKVHNVAFAFELMLDGGLKKPKARPEDVVNLDLKSTLRVLYTLFTKYKDVE
